{"source": "patent US10620215B2", "about": "“Real-time imaging sensor for measuring cellular thiol level” (CELL2IN, INC., priority 2014, dated 2020)", "system": "HeLa cells", "experiment": "Level of thiols / reduced GSH in living HeLa cells, by FreSH-tracer fluorescence intensity ratio", "type": "cell-based", "conditions": "treatment with GSH-related enzyme inhibitor", "procedure": "HeLa and RAW264.7 cells were cultured in DMEM (containing 10% heat-inactivated FBS (Hyclone), 100 U/ml of penicillin, 100 μg/ml of streptomycin sulfate and 2 mM glutamine and free of phenol red). HeLa (1.8×10^5 cells/dish) and RAW264.7 (2×10^5 cells/dish) were seeded in 35 mm cover glass bottom dishes (SPL Life Sciences), and then cultured under the conditions of 37° C. and 5% CO2 for the indicated time. Before observation using a fluorescence microscope, the HeLa cells were incubated with 2 mL of a medium containing 5 μM of the FreSH-tracer HeLa for 2 hours, and the RAW264.7 cells were incubated for 4 hours. Real-time images of the cells were acquired using a Nikon A1 laser scanning confocal microscope. The imaging test was 2 performed while the cells were incubated under the conditions of 37° C. and 5% CO2 in a chamber mounted in a Nikon ECLIPSE Ti inverted microscope equipped with CFI Plan apochromat 60× and 1.40 numerical aperture (NA) objective lenses. The FreSH-tracer was excited with laser beams at 403 nm and 488 nm, and the fluorescence of the tracer was detected through filters with 500-550 nm and 570-620 nm band intervals. Using NIS-Elements AR software, the experimental data were analyzed and the ratio of fluorescence was imaged. […]", "note": "At least one compound was matched to its structure with a doubt left."}
{"compound": "O=NN(CCCl)C(=O)NCCCl", "note": "[BCNU, bis-chloroethylnitrosourea]", "values": [{"measurement": "fluorescence intensity ratio of the sensor (level of reduced GSH) in HeLa cells", "result": "reduced"}]}
